This note sets out measurements from doi:10.1101/2020.01.13.905190.

Protein sequences, listed by entry. Tags and fused reporters are not part of them. Lines headed by an entry give the natural chain unless they say otherwise; changes in a name come on top. Chains listed by the source or under a name are the forms on record and can include a tag or linker. Residues count along the entry.
UniProt P00451: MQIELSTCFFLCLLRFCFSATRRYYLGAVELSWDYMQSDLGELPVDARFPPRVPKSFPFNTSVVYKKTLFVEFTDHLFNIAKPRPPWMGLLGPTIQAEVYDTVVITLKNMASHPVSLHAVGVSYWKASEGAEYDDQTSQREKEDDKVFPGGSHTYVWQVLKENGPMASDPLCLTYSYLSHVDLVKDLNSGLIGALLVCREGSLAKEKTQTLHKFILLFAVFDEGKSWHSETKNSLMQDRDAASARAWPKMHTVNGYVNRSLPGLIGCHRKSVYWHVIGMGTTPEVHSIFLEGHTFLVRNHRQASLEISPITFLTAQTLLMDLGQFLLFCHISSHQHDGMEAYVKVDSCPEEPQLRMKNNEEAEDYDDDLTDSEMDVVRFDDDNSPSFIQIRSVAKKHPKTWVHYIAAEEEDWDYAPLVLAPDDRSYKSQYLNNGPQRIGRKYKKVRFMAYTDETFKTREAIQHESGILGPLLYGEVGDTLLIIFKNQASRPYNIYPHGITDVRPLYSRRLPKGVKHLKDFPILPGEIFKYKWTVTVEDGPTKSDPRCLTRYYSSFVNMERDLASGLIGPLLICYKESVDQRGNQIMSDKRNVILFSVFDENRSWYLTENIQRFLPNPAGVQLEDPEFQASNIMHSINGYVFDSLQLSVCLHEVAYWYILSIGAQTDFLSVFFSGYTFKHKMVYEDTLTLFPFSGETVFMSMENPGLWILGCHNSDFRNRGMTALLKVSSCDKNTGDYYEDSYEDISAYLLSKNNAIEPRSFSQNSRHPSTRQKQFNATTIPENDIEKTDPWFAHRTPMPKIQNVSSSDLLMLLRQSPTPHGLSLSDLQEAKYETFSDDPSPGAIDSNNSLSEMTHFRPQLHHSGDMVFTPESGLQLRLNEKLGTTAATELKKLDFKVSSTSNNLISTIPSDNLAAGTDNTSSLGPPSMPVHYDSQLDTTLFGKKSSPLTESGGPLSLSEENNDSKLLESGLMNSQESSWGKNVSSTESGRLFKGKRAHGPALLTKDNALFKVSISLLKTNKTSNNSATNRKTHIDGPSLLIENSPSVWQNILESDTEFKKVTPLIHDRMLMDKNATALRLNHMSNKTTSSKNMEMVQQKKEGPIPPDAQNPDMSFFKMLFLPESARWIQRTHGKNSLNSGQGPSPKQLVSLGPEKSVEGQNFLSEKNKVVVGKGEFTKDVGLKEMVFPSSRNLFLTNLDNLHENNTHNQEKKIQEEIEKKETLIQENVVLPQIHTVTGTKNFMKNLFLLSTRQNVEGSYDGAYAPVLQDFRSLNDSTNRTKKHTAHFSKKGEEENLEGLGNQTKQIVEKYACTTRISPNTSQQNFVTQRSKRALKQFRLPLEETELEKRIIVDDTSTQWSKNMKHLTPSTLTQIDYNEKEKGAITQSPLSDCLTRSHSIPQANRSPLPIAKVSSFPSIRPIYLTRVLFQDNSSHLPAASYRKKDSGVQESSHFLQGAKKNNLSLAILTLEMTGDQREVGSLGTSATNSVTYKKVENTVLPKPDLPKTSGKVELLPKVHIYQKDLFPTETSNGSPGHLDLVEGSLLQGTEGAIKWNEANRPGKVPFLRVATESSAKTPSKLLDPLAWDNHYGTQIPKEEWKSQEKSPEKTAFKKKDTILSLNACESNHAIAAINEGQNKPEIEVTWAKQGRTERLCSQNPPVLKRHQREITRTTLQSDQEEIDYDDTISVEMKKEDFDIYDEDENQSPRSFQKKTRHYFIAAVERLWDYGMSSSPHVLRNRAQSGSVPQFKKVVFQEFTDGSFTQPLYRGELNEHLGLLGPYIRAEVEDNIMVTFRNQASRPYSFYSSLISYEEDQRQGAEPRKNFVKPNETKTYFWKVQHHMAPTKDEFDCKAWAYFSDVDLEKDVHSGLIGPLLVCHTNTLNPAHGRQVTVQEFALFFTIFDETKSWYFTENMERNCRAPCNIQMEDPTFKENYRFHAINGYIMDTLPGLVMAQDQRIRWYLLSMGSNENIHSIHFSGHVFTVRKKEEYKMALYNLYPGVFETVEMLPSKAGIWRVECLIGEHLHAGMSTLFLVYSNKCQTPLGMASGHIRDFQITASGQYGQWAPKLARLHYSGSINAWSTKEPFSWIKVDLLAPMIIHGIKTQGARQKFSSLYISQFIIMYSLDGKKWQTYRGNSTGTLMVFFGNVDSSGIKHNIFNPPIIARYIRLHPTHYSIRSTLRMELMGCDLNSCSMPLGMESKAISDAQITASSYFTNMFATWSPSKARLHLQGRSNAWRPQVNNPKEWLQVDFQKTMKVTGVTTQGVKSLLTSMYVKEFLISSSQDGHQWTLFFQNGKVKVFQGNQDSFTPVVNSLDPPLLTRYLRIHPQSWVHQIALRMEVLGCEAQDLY
C310EFVIII-eGFP-CMy (P00451, form named): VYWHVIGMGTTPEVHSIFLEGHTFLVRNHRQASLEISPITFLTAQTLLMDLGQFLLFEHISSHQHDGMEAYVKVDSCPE
F309SFVIII-CMy (P00451, form named): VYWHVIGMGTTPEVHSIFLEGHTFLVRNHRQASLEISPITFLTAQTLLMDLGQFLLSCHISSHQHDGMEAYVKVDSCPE
UniProt G3I8R9, residues 19-654: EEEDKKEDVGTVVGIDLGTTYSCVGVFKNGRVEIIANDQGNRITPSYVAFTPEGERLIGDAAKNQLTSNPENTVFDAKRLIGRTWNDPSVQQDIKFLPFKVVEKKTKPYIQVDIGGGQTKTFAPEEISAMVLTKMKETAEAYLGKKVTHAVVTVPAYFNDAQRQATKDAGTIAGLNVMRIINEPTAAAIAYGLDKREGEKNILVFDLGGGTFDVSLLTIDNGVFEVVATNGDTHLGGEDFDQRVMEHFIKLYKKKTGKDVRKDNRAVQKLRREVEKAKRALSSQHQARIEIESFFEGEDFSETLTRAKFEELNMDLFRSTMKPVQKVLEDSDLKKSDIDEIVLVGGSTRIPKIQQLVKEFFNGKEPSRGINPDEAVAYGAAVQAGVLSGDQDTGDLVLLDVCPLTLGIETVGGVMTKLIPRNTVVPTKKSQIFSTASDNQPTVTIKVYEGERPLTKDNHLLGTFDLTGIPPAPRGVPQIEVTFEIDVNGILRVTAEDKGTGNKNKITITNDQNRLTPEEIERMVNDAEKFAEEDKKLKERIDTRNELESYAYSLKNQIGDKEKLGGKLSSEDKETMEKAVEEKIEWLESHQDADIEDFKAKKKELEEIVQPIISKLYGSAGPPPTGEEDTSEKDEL

No constants are given. Whether binding was seen depends on the method and setting. For some of these results: In cells and extracts the contact can be indirect. Some binding calls cover weakened binding; strength is not graded here.

For assay [1], the target named is C310EFVIII-eGFP-CMy (human) (UniProt P00451). Put plainly: sucrose gradient sedimentation.
Assay [2] addresses F309SFVIII-eGFP-CMy (human) (UniProt P00451). Put plainly: sucrose gradient sedimentation.
A further assay concerns the target F309SFVIII-CMy (human) (UniProt P00451). The assay can be described thus: sucrose gradient sedimentation.
In assay [3] the target is human FVIII expressed in H9 CHO cells (human) (UniProt P00451). Put plainly: sucrose gradient sedimentation with IP and electron microscopy.
For assay [4] the target is unchanged. The assay can be described thus: co-IP.
Assay [5] has the same target. Put plainly: co-IP. The source holds these as a separate data set.
The target of a further assay is wtFVIII-eGFP-CMy (human) (UniProt P00451). The assay can be described thus: sucrose gradient sedimentation.

On to “C310EFVIII-eGFP-CMy (from UniProt P00451 272-350) (domain or fragment)”, for which the binding result in assay [1] is reported as “binds”.
“F309SFVIII-eGFP-CMy (from UniProt P00451 272-350) (domain or fragment)”: the binding result in assay [2] is reported as “binds”.
Turning to “F309SFVIII-CMy (from UniProt P00451 272-350) (domain or fragment)”, in the assay with F309SFVIII-CMy (human), the binding result is “binds”.
“human FVIII expressed in H9 CHO cells (from UniProt P00451 20-2351)”: the binding result in assay [3] is recorded as “binds”.
Take “BiP/HSPA5 (endogenous in H9 CHO cells) (from UniProt G3I8R9 19-654)”: the binding result in assay [4] and in assay [5] was “binds” in each case.
Take “wtFVIII-eGFP-CMy (from UniProt P00451 272-350) (domain or fragment)”: in the assay with wtFVIII-eGFP-CMy (human), the binding result is given as “binds”.
